Measurements as given in patent publication US6812255B2, “Use of aloe-emodin in the treatment of neuroectodermal tumors” (Universita Degli Studi Di Padova, priority 2002, dated 2004).
At least one compound was matched to its structure with a doubt left.

What was measured:
[1] = test system: neuroblastoma cells (SJ-N-KP); assay: Clonogenic test, neuroblastoma cells; assay type: cell-based, human; details: methyl cellulose, 1-100 μM, 14 days, compared with CFU-GM
[2] = test system: neuroblastoma IMR5; assay: Anti-tumor effectiveness in SCID mice, neuroblastoma IMR5; assay type: in vivo; details: IMR5 s.c., 50 mg/kg/die i.p. for 5 days
[3] = test system: colon adenocarcinoma cells LoVo 109; assay: Anti-tumor effectiveness in SCID mice, colon adenocarcinoma LoVo 109; assay type: in vivo; details: LoVo 109 s.c., 50 mg/kg/die i.p. for 5 days, treated immediately after inoculation

O=C1c2cccc(O)c2C(=O)c2c(O)cc(CO)cc21 [AE, 1,8-dihydroxy-3-hydroxymethyl-9.10-anthracenedione]
colony-forming activity of neuroblastoma cells [1]: inhibited at lower concentrations | growth of the developed tumoral mass ([2]; treated at day 15 after tumor cells injection): blocks the growth of the developed mass | appearance of neuroblastoma tumor ([2]; treated immediately after inoculation): inhibits the appearance of neuroblastoma for 15 days from the inoculation | tumor growth [3]: tumor growth does not change
